Data as given in PubChem BioAssay AID1508597 (Cure First, 2020).

- Aim: 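Genes whose silencing sensitises or protects ovarian cancer cells against rucaparib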 (primary screen)
- System: human ovarian carcinoma lines grown from tumours: OCI-P5x (papillary serous) and OCI-C5x (clear cell)
- Knock-down reagent: siRNA pool against human genes, 1.25 pmol siRNA per well
- Time to read-out: 72 h or 96 h, depending on the cell culture
- Conditions: rucaparib 20 µM (about IC30) or vehicle, present until read-out
- Rucaparib or vehicle: Rucaparib
- Cell line: OCI-C5x (clear cell)
- Read-out: 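ATP luminescence measured at 72 or 96 h according to the culture, then normalised and expressed as percent viability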
- Scale: viability, normalised: higher = more viable cells remaining
- Active means: 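a well counts as a hit if its normalised viability is under 80 percent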
- Meaning of the calls: active = viability under 80%; inactive = viability 80% or more
This is a random part of the about 2,100 reagents, under one of the conditions tested. 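Calls flag viability under 80% in either arm, not effects specific to rucaparib; the reference for percent is not stated.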 A reagent listed more than once was tested more than once; the source does not tell the runs apart. Not given: the 100% reference.

NSD1 (nuclear receptor binding SET domain protein 1) [SID405527095], technical replicate 1 → viability, normalised (%): 47.1; outcome: active
NSD1 (nuclear receptor binding SET domain protein 1) [SID405527095], technical replicate 2 → viability, normalised (%): 58.9; outcome: active
NSD1 (nuclear receptor binding SET domain protein 1) [SID405527095], technical replicate 3 → viability, normalised (%): 55.1; outcome: active
TDRD7 (tudor domain containing 7) [SID405526547], technical replicate 1 → viability, normalised (%): 62.4; outcome: active
TDRD7 (tudor domain containing 7) [SID405526547], technical replicate 2 → viability, normalised (%): 46.6; outcome: active
TDRD7 (tudor domain containing 7) [SID405526547], technical replicate 3 → viability, normalised (%): 37.1; outcome: active
SLC25A26 [SID405526484], technical replicate 1 → viability, normalised (%): 53.8; outcome: active
SLC25A26 [SID405526484], technical replicate 2 → viability, normalised (%): 55; outcome: active
SLC25A26 [SID405526484], technical replicate 3 → viability, normalised (%): 68.6; outcome: active
STK24 (serine/threonine kinase 24) [SID405527746], technical replicate 1 → viability, normalised (%): 68.6; outcome: active
STK24 (serine/threonine kinase 24) [SID405527746], technical replicate 2 → viability, normalised (%): 51.2; outcome: active
STK24 (serine/threonine kinase 24) [SID405527746], technical replicate 3 → viability, normalised (%): 49.5; outcome: active
FGFR2 (fibroblast growth factor receptor 2) [SID405526784], technical replicate 1 → viability, normalised (%): 35.6; outcome: active
FGFR2 (fibroblast growth factor receptor 2) [SID405526784], technical replicate 1 → viability, normalised (%): 48.5; outcome: active
FGFR2 (fibroblast growth factor receptor 2) [SID405526784], technical replicate 2 → viability, normalised (%): 35.3; outcome: active
FGFR2 (fibroblast growth factor receptor 2) [SID405526784], technical replicate 2 → viability, normalised (%): 27.9; outcome: active
FGFR2 (fibroblast growth factor receptor 2) [SID405526784], technical replicate 3 → viability, normalised (%): 49.5; outcome: active
FGFR2 (fibroblast growth factor receptor 2) [SID405526784], technical replicate 3 → viability, normalised (%): 35.6; outcome: active
CLDN20 (claudin 20) [SID405528134], technical replicate 1 → viability, normalised (%): 64.4; outcome: active
CLDN20 (claudin 20) [SID405528134], technical replicate 2 → viability, normalised (%): 62.7; outcome: active
CLDN20 (claudin 20) [SID405528134], technical replicate 3 → viability, normalised (%): 51.5; outcome: active
ASXL2 (ASXL transcriptional regulator 2) [SID405527994], technical replicate 1 → viability, normalised (%): 67.6; outcome: active
ASXL2 (ASXL transcriptional regulator 2) [SID405527994], technical replicate 2 → viability, normalised (%): 45.7; outcome: active
ASXL2 (ASXL transcriptional regulator 2) [SID405527994], technical replicate 3 → viability, normalised (%): 51; outcome: active
MDC1 (mediator of DNA damage checkpoint 1) [SID405528502], technical replicate 1 → viability, normalised (%): 47.2; outcome: active
MDC1 (mediator of DNA damage checkpoint 1) [SID405528502], technical replicate 2 → viability, normalised (%): 46.4; outcome: active
MDC1 (mediator of DNA damage checkpoint 1) [SID405528502], technical replicate 3 → viability, normalised (%): 62.6; outcome: active
PCNA (proliferating cell nuclear antigen) [SID405528262], technical replicate 1 → viability, normalised (%): 37.2; outcome: active
PCNA (proliferating cell nuclear antigen) [SID405528262], technical replicate 2 → viability, normalised (%): 27.2; outcome: active
PCNA (proliferating cell nuclear antigen) [SID405528262], technical replicate 3 → viability, normalised (%): 47.3; outcome: active
RHO (rhodopsin) [SID405527246], technical replicate 1 → viability, normalised (%): 36; outcome: active
RHO (rhodopsin) [SID405527246], technical replicate 2 → viability, normalised (%): 29.6; outcome: active
RHO (rhodopsin) [SID405527246], technical replicate 3 → viability, normalised (%): 21.8; outcome: active

2 neighbouring entries already listed:
PCNA (proliferating cell nuclear antigen) [SID405528262], technical replicate 2 → viability, normalised (%): 27.2; outcome: active
PCNA (proliferating cell nuclear antigen) [SID405528262], technical replicate 3 → viability, normalised (%): 47.3; outcome: active
